The name of at least one read-out is uncertain.
Columns and labels:
human S1P1 receptor = biological target: T1, human S1P1 receptor (Homo sapiens, UniProt P21453); assay: GTPγS-35 binding assay, S1P1; assay type: biochemical; conditions: recombinant human S1P1 receptor (FIG. 16)
T1 construct: expressed in transfected cells; host or cells: HEK293T (crude microsomes)

By UniProt entry, the sequences of proteins in these tests, tags left out. Where a name states a change or a piece, a line headed by the entry shows the natural chain unless it says otherwise.
UniProt P21453, whole entry: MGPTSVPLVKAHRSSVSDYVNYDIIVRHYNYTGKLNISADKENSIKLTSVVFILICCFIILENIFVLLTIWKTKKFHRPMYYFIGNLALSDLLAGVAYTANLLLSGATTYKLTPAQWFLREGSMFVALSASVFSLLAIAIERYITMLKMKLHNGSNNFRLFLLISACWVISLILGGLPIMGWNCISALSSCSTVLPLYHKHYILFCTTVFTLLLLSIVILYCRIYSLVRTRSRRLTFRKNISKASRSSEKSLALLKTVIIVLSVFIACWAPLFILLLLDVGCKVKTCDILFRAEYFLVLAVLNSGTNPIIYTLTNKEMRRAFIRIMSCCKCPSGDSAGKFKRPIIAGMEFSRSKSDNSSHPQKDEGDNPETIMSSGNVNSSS
UniProt Q99500: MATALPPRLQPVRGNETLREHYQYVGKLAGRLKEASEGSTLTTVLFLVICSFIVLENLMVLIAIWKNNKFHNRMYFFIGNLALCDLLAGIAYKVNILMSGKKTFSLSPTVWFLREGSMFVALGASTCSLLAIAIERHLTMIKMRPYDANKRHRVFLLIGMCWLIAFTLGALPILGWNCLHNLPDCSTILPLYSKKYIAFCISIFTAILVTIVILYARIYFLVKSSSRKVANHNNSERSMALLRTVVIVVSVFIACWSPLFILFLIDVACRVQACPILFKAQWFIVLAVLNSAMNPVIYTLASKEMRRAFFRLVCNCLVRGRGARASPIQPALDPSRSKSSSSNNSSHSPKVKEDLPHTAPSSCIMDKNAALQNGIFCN

[1] = biological target: T2, human S1P type 3 (S1P3) receptor (Homo sapiens, UniProt Q99500); assay: GTPγS-35 binding assay, S1P3; assay type: biochemical; conditions: recombinant human S1P3 receptor (FIG. 17)
T2 construct: expressed in transfected cells; host or cells: HEK293T (crude microsomes)

CCCCCCCCc1ccc(C2CCC(N)(COP(=O)(O)O)C2)cc1 (centres unmarked) [VPC01211, (1-amino-3-(4-octylphenyl)cyclopentyl)methyl dihydrogen phosphate]
rank order potency (EC50) at S1P1 (human S1P1 receptor): isomer 1>isomer 3>isomer 4>isomer 2>S1P>VPC01211 | rank order potency (EC50) at S1P3 [1]: S1P>isomer 2>VPC01211>isomer 4>isomer 1>isomer 3

From patent US8329676B2, “Cycloalkane-containing sphingosine 1-phosphate agonists” (University of Virginia Patent Foundation, priority 2005, dated 2012)
